Data taken from publication PMC4424398, “A Human Platelet Receptor Protein Microarray Identifies the High Affinity Immunoglobulin E Receptor Subunit α (FcεR1α) as an Activating Platelet Endothelium Aggregation Receptor 1 (PEAR1) Ligand* ^([image sbox.jpg])” (Molecular & Cellular Proteomics : MCP, 2015).
Results are given in words; binding and its absence hold for the method and conditions named. Some binding calls cover weakened binding; strength is not graded here. For part of these data: Sequences can lack the tags named with a protein.

Chains of the proteins cited; added tags and fusions are not shown. Residues count along the entry.
UniProt P12319, residues 26-205: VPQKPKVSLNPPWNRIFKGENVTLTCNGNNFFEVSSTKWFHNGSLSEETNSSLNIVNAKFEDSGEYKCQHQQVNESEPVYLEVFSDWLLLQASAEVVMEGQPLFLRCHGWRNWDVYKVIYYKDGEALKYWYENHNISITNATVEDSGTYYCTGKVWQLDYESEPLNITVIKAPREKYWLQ

Experiments:
[1] = molecular target: T1, PEAR1 ectodomain, monomeric biotinylated bait (human) (UniProt Q5VY43); assay: AVEXIS (avidity-based extracellular interaction screen); competition: PEAR1 as plate-immobilised bait, FcεR1α prey preincubated with IgE, IgE fragments or control IgG (with or without 2.5 μg omalizumab); nitrocefin read-out; rat Cd200-Cd200R as control interaction
T1 sequence (chain, biotin (on the biotinylatable peptide tag)): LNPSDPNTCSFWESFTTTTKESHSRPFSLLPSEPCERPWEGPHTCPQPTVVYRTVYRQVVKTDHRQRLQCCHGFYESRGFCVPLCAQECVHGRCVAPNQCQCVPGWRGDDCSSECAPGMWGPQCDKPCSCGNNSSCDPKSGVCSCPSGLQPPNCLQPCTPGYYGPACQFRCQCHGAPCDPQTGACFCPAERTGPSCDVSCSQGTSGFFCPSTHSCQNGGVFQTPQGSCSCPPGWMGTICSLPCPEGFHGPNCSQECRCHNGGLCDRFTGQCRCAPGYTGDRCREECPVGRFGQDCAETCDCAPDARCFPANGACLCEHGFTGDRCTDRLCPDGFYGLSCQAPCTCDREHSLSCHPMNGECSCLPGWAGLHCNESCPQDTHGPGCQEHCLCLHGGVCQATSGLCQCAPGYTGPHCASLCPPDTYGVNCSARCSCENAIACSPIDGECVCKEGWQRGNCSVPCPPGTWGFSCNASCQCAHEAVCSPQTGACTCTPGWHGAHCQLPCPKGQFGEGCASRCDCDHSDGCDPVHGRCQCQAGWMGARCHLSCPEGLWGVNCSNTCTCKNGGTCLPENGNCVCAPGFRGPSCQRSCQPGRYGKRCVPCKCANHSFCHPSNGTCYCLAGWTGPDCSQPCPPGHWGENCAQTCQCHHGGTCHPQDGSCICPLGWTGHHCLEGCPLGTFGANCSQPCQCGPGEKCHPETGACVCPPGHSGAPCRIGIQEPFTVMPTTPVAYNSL

[2] = molecular target: T1, PEAR1 ectodomain, monomeric biotinylated bait (human); assay: peptide or protein array; AVEXIS on a microarray: purified biotinylated baits printed in six 3-fold dilutions on streptavidin-coated hydrogel slides; pentameric FLAG-tagged normalised preys incubated 1 h; anti-FLAG-HRP and tyramide Alexa Fluor 555; 22 °C; purification of the preys not told
[3] = molecular target: FcεR1α ectodomain, monomeric biotinylated bait (human) (UniProt P12319); assay: as above

Molecule: FcεR1α entire ectodomain, pentameric prey (from UniProt P12319 26-205) (receptor)
- binding [1]: binds
- binding [2]: binds

B1: PEAR1 entire ectodomain, recombinant pentameric FLAG-tagged soluble prey (receptor, UniProt Q5VY43 21-755)
chain: LNPSDPNTCSFWESFTTTTKESHSRPFSLLPSEPCERPWEGPHTCPQPTVVYRTVYRQVVKTDHRQRLQCCHGFYESRGFCVPLCAQECVHGRCVAPNQCQCVPGWRGDDCSSECAPGMWGPQCDKPCSCGNNSSCDPKSGVCSCPSGLQPPNCLQPCTPGYYGPACQFRCQCHGAPCDPQTGACFCPAERTGPSCDVSCSQGTSGFFCPSTHSCQNGGVFQTPQGSCSCPPGWMGTICSLPCPEGFHGPNCSQECRCHNGGLCDRFTGQCRCAPGYTGDRCREECPVGRFGQDCAETCDCAPDARCFPANGACLCEHGFTGDRCTDRLCPDGFYGLSCQAPCTCDREHSLSCHPMNGECSCLPGWAGLHCNESCPQDTHGPGCQEHCLCLHGGVCQATSGLCQCAPGYTGPHCASLCPPDTYGVNCSARCSCENAIACSPIDGECVCKEGWQRGNCSVPCPPGTWGFSCNASCQCAHEAVCSPQTGACTCTPGWHGAHCQLPCPKGQFGEGCASRCDCDHSDGCDPVHGRCQCQAGWMGARCHLSCPEGLWGVNCSNTCTCKNGGTCLPENGNCVCAPGFRGPSCQRSCQPGRYGKRCVPCKCANHSFCHPSNGTCYCLAGWTGPDCSQPCPPGHWGENCAQTCQCHHGGTCHPQDGSCICPLGWTGHHCLEGCPLGTFGANCSQPCQCGPGEKCHPETGACVCPPGHSGAPCRIGIQEPFTVMPTTPVAYNSL
- binding [3]: binds
